Test results published in the supplement of paper PMC10735217.
Where a name gives a salt, the structure may show the parent alone. The list shows a part of the results. Repeats in this data set agree poorly, so a single value says little.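 Human kidney-derived cells stably carry a construct in which eight TEAD-binding elements drive luciferase, measured by luminescence in a drug-repurposing library screen. A hit is any compound whose signal exceeds the plate mean by more than five robust Z scores.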

System: HEK293A TEAD-LUC reporter
Test: TEAD-luciferase reporter activity (YAP activation), robust Z score vs plate; higher = stronger YAP/TEAD activation
Conditions: 24 h

| Structure (SMILES) | TEAD-luciferase reporter activity (compound concentration: 200 nM) | TEAD-luciferase reporter activity (compound concentration: 2 uM) | TEAD-luciferase reporter activity (compound concentration: 10 uM) |
| --- | --- | --- | --- |
| CCn1nc2c(-c3ccc(Cl)cc3)c(-c3cnc(C)nc3)c(=O)n(Cc3ccc(C(F)(F)F)nc3C)n2c1=O | inactive: 1.44 | inactive: -0.599 | inactive: 0.974 |
| CC(=O)O[C@]1(C(C)=O)CCC2C3C=C(C)C4=CC(=O)CC[C@]4(C)C3CC[C@@]21C (some centres undefined) [megestrol acetate, Par] | inactive: -1.34 | inactive: 1.24 | inactive: 0.558 |
| CCN1C(=O)CNc2ncc(-c3ccc(-c4nc[nH]n4)nc3C)nc21 | inactive: 0.295 | inactive: -0.386 | inactive: -1.37 |
| CC(=O)Nc1ccc(OC(=O)Cc2ccc(C(=O)c3ccc(C)cc3)n2C)cc1 | inactive: -0.119 | inactive: -0.525 | inactive: 1.81 |
| O=C1CNC(=O)/C1=C/NCc1ccccc1 [beprodone, MarcoPolo] | inactive: 0.833 | – | inactive: -1.31 |
| O=C1CNC(=O)/C1=C/NCc1ccccc1 [beprodone] | – | inactive: 0.581 | – |
| C[C@H](CC[C@@H](O[C@@H]1O[C@H](CO)[C@@H](O)[C@H](O)[C@H]1O[C@@H]1O[C@H](CO)[C@@H](O)[C@H](O)[C@H]1O)C(C)(C)O)[C@H]1CC[C@@]2(C)[C@@H]3CC=C4[C@@H](CC[C@H](O[C@@H]5O[C@H](CO[C@@H]6O[C@H](CO)[C@@H](O)[C@H](O)[C@H]6O)[C@@H](O)[C@H](O)[C@H]5O)C4(C)C)[C@]3(C)[C@H](O)C[C@]12C [Mogroside IV] | inactive: -0.117 | inactive: -2.04 | inactive: -0.979 |
| CCc1ccc(N(CC(C)C)S(=O)(=O)c2ccc(OCC3CCOCC3)c(CO)c2)cc1 | inactive: 2.13 | inactive: 0.297 | inactive: -0.201 |
| CC(C)C[C@@H](N)C(=O)N[C@H]1C(=O)N[C@@H](CC(N)=O)C(=O)N[C@H]2C(=O)N[C@H]3C(=O)N[C@H](C(=O)N[C@H](C(=O)O)c4cc(O)cc(O)c4-c4cc3ccc4O)[C@H](O)c3ccc(c(Cl)c3)Oc3cc2cc(c3O[C@@H]2O[C@H](CO)[C@@H](O)[C@H](O)[C@H]2O[C@H]2C[C@](C)(N)[C@H](O)[C@H](C)O2)Oc2ccc(cc2Cl)[C@H]1O [Norvancomycin (hydrochloride)] | inactive: 1.34 | – | inactive: -0.469 |
| Oc1nc2ccccc2n1C1CCN(CCOc2ccccc2)CC1 [Oxiperomide] | inactive: -0.44 | inactive: -0.0726 | active: 10.4 |
| CCn1c(=O)/c(=C2\Sc3ccccc3N2C)s/c1=C\c1cccc[n+]1CC | inactive: -1.55 | inactive: -0.557 | inactive: 1.47 |
| CCOC(=O)CN(CCN(CC(=O)OCC)Cc1ccccc1O)Cc1ccccc1O | inactive: -2.4 | inactive: 1.98 | inactive: 2.64 |
| O=C(Cn1ccnc1[N+](=O)[O-])NCC(F)(F)C(F)(F)F | inactive: -1.18 | inactive: 0.409 | inactive: -0.43 |
| NC(=O)OC1CC2CC3CC(C2)CC1C3 (centres undefined) | inactive: -0.886 | inactive: -1.19 | inactive: -0.448 |
| N#C[C@@H]1C[C@@H]2C[C@@H]2N1C(=O)[C@@H](N)[C@@]12C[C@@H]3C[C@@H](CC(O)(C3)C1)C2 [saxagliptin hydrochloride] | inactive: -1.41 | – | inactive: -0.128 |
| CC1(C)[C@@H](O[C@H]2O[C@H](C(=O)O)[C@@H](O)[C@H](O)[C@H]2O[C@@H]2O[C@H](C(=O)O)[C@@H](O)[C@H](O)[C@H]2O)CC[C@]2(C)[C@H]3C(=O)C=C4[C@@H]5C[C@@](C)(C(=O)O)CC[C@]5(C)CC[C@@]4(C)[C@]3(C)CC[C@@H]12 [Glycyrrhizinic acid] | inactive: -1.76 | inactive: -0.726 | inactive: 0.468 |
| O=C1Nc2ccc(F)c(F)c2[C@@](C#CC2CC2)(C(F)(F)F)N1 | inactive: -1.17 | inactive: -0.297 | inactive: 0.627 |
| CO[C@H]1C[C@@H]2CC[C@@H](C)[C@@](O)(O2)C(=O)C(=O)N2CCCC[C@H]2C(=O)O[C@H]([C@H](C)C[C@@H]2CC[C@@H](O)[C@H](OC)C2)CC(=O)[C@H](C)/C=C(\C)[C@@H](O)[C@@H](OC)C(=O)[C@H](C)C[C@H](C)/C=C/C=C/C=C/1C [Sirolimus] | – | inactive: 0.101 | – |
| CO[C@H]1C[C@@H]2CC[C@@H](C)[C@@](O)(O2)C(=O)C(=O)N2CCCC[C@H]2C(=O)O[C@H]([C@H](C)C[C@@H]2CC[C@@H](O)[C@H](OC)C2)CC(=O)[C@H](C)/C=C(\C)[C@@H](O)[C@@H](OC)C(=O)[C@H](C)C[C@H](C)/C=C/C=C/C=C/1C [Rapamycin] | inactive: 0.222 | – | inactive: 2.95 |
| O=C([O-])CN1CCN(CC(=O)[O-])CCN(C(CO)C(O)CO)CCN(CC(=O)[O-])CC1 (centres undefined) [gadobutrol] | inactive: -0.874 | inactive: -1.59 | inactive: -0.962 |
| CC(C)NCCN(C(C)C)S(=O)(=O)c1ccc(Cl)cc1Cl | inactive: -1.24 | inactive: -0.517 | inactive: 1.01 |
| CNCCN1CCN(c2cccc(Cl)c2)C1=O | inactive: 2.94 | inactive: -0.453 | inactive: -0.546 |
| Nc1ccc(S(=O)(=O)[N-]c2cncc(Cl)n2)cc1 [Sodium Sulfachloropyrazine Monohydrate] | inactive: -0.147 | inactive: 0.581 | inactive: 0.124 |
| CNC(=O)c1ccc(-c2cc(Cl)cc(Cl)c2Cl)c(N)n1 | inactive: 0.798 | inactive: -0.591 | inactive: 1.21 |
| Cc1cc(NC(=O)/C(C#N)=C(\O)C2CC2)ccc1C(F)(F)F | inactive: -0.706 | inactive: 0.452 | inactive: 0.981 |
| Cc1cccc(C)c1OCC(=O)N[C@@H](Cc1ccccc1)[C@@H](O)C[C@H](Cc1ccccc1)NC(=O)[C@H](C(C)C)N1CCCNC1=O [Lopinavir] | inactive: -1.1 | inactive: 1.75 | inactive: -0.386 |

| Structure (SMILES) | TEAD-luciferase reporter activity (compound concentration: 200 nM) | TEAD-luciferase reporter activity (compound concentration: 2 uM) | TEAD-luciferase reporter activity (compound concentration: 10 uM) |
| --- | --- | --- | --- |
| Cc1ccc(O)c2ncccc12 | inactive: -1.46 | inactive: -0.849 | inactive: 2.01 |
| O=C1NC(=O)C(Cc2cccc(Oc3ccccc3)c2)S1 (centres undefined) | inactive: -1.37 | inactive: -0.811 | inactive: -0.152 |
| Cc1ccc(=O)n(-c2cccc(F)c2)c1 [Fluorofenidone] | inactive: 0.436 | inactive: -0.244 | inactive: 2.75 |
| CCCCc1cc2c(=O)cc(C(=O)O)[nH]c2c2c(=O)cc(C(=O)O)[nH]c12 [Bufrolin] | inactive: 0.92 | inactive: -0.163 | inactive: 2.18 |
| CCC(C(N)=O)(C(N)=O)c1ccccc1 | inactive: -0.668 | inactive: 0.579 | inactive: 1.36 |
| Cc1ncc([N+](=O)[O-])n1CCO [Metronidazole] | inactive: -0.823 | inactive: -1.36 | inactive: -1.24 |
| Nc1ccn([C@@H]2O[C@H](CO)C[C@@H]2F)c(=O)n1 | inactive: 0.681 | inactive: -0.748 | inactive: 3.11 |
| CC(C)(C)NC(=O)C1CCC2C3CCC4NC(=O)C=CC4(C)C3CCC12C (centres undefined) [finasteride] | inactive: -1.26 | inactive: -1.21 | inactive: -0.626 |
| N#CC1CCN(C(=O)C2CN(c3ccccc3)C(=O)N2)CC1 (centres undefined) | inactive: -0.0163 | – | inactive: 0.894 |
| CC(=O)N1Cc2ccccc2OC2(CCN(C(=O)NC(C)C)CC2)C1 | inactive: -1.72 | – | active: 8.03 |
| O=C1CCC(N2C(=O)c3ccccc3S2(=O)=O)C(=O)N1 (centres undefined) | inactive: -0.612 | inactive: -1.03 | inactive: 2.79 |
| C=CCc1c(OCCCNCc2ccccc2)ccc2c1[nH]c1ccccc12 | inactive: -0.54 | inactive: -0.22 | inactive: 1.4 |
| C#CCN[C@@H]1CCc2ccccc21 [Rasagiline mesilate] | inactive: -0.923 | inactive: 1.89 | inactive: 0.776 |
| Cc1ccc(Cl)c(OCC(O)CNC(C)C)c1 (centres undefined) [analog of bupranolol] | inactive: -0.105 | inactive: -0.588 | inactive: -0.586 |
| NC[C@H]1CC[C@H](C(=O)Oc2ccc(CCC(=O)O)cc2)CC1 | inactive: -0.594 | – | inactive: 0.0829 |
| NC[C@H]1CC[C@H](C(=O)Oc2ccc(CCC(=O)O)cc2)CC1 [cetraxate] | – | inactive: -0.578 | – |
| CC1c2ccccc2Cn2cc3c(c21)C(=O)c1cccc(O)c1C3=O (centres undefined) | inactive: 1.85 | inactive: 0.217 | inactive: 0.271 |
| O=C(O)Cc1ccc2c(c1)CC(CNS(=O)(=O)c1ccc(Cl)cc1)C2 (centres undefined) | inactive: -1.13 | inactive: -1.5 | inactive: -1.06 |
| O=C(O)c1cc(N=Nc2ccc(S(=O)(=O)Nc3ccccn3)cc2)ccc1O [sulfasalazine] | – | inactive: -1.04 | – |
| O=C(O)c1cc(N=Nc2ccc(S(=O)(=O)Nc3ccccn3)cc2)ccc1O | inactive: -0.901 | – | inactive: 0.602 |
| O=c1[nH]cnc2[nH]ncc12 [Allopurinol] | inactive: -1.16 | inactive: -0.875 | inactive: -0.906 |
| Cc1occc(=O)c1O [maltol] | – | inactive: -1.25 | – |
| Cc1occc(=O)c1O | inactive: 0.133 | – | inactive: -0.418 |
| O=CNc1ncc([N+](=O)[O-])s1 | inactive: 0.541 | inactive: -1.36 | inactive: -1.08 |
| C[C@H](N)C(=O)N[C@@]1(C(=O)O)C[C@@H](Sc2nnc[nH]2)[C@H]2[C@H](C(=O)O)[C@H]21 | inactive: 1.79 | inactive: -1.36 | inactive: -2.09 |

3 records picked at random from those above:

| Structure (SMILES) | TEAD-luciferase reporter activity (compound concentration: 200 nM) | TEAD-luciferase reporter activity (compound concentration: 2 uM) | TEAD-luciferase reporter activity (compound concentration: 10 uM) |
| --- | --- | --- | --- |
| CO[C@H]1C[C@@H]2CC[C@@H](C)[C@@](O)(O2)C(=O)C(=O)N2CCCC[C@H]2C(=O)O[C@H]([C@H](C)C[C@@H]2CC[C@@H](O)[C@H](OC)C2)CC(=O)[C@H](C)/C=C(\C)[C@@H](O)[C@@H](OC)C(=O)[C@H](C)C[C@H](C)/C=C/C=C/C=C/1C [Rapamycin] | inactive: 0.222 | – | inactive: 2.95 |
| Oc1nc2ccccc2n1C1CCN(CCOc2ccccc2)CC1 [Oxiperomide] | inactive: -0.44 | inactive: -0.0726 | active: 10.4 |
| O=C([O-])CN1CCN(CC(=O)[O-])CCN(C(CO)C(O)CO)CCN(CC(=O)[O-])CC1 (centres undefined) [gadobutrol] | inactive: -0.874 | inactive: -1.59 | inactive: -0.962 |
